Results published in PubChem BioAssay AID493014 (National Center for Advancing Translational Sciences (NCATS), 2011).
Several values for one entry are separate records, joined by “and”; a condition that tells them apart may be missing. Equal values may be shown once. Some of the results follow. Shown are side measurements of this screen, not its main read-out; they come without a call. Compounds called inactive in the main read-out are mostly missing here. Potencies come from curve fits of mixed quality, noted in brackets.

Assay: qHTS Assay to Find Inhibitors of Chronic Active B-Cell Receptor Signaling
Conditions: ABC-DLBCL IkBa-CBG/CBR reporter, luminescence ratio (green luciferase fused to IkBa over red control in TMD8 lymphoma cells), 4 h
Summary of the method: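 TMD8 human ABC-DLBCL cells with doxycycline-inducible IκBα–green luciferase fusion and unfused red luciferase, in 0.5% FBS medium; compounds up to 46 uM, 4 h at 37C. Green/red luminescence ratio, filter-overlap corrected, fitted to concentration-response curves.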

[1] = measured here: CBR red luminescence, cell number
[2] = measured here: IkBa-CBG green luminescence

Row | Compound | AC50 [1] | AC50 [2]
1 | CC(=O)N(Cc1ccco1)C1(C(=O)NC2CCCC2)CCCCC1 | 2.31 µM [rising, partial curve, poor fit] | –
2 | O=C1NC(=O)C(c2cccs2)(c2cccs2)N1 | 2.82 µM [rising, single point] | –
3 | CC(=O)C1=C(NC(=O)c2ccccc2F)C[C@@H]2[C@H]1C2(C)C | 9.2 µM [rising, partial curve] | –
4 | COc1ccc(C2/C=C\CN(C(=O)Nc3ccccc3-c3ccccc3)CC(=O)N2Cc2ccc(F)cc2)cc1 (stereo not drawn) | 11.2 µM [falling, single point] | –
5 | Cc1nc(NC2=NCN(Cc3ccccc3)CN2)nc2ccccc12 | 35.5 µM [falling, single point] | –
6 | CC(C)N(CCn1c(SCC(=O)Nc2cccnc2Cl)nc2ccccc2c1=O)C(C)C | 2.31 µM [rising, partial curve, poor fit] | –
7 | O=c1[nH]c2ccccc2c(O)c1O | 20 µM [falling, partial curve, poor fit] | –
8 | CCN1C(=NCc2ccc(OC)cc2)N[C@@H](CCc2ccccc2)[C@H](C(=O)NCc2ccc(OC)cc2)[C@H]1C | 35.5 µM [falling, single point] and 22.4 µM [falling, partial curve, poor fit] | –
9 | Cc1ccc(NC(=O)Nc2cccc(F)c2)nc1 | 2 µM [rising, partial curve, poor fit] | –
10 | Nc1nc(-c2ccc3c(c2)CCO3)cs1 | 5.01 µM [rising, full curve, poor fit] | –
11 | CC(c1ccon1)N(C)Cc1cn(Cc2ccccc2)nc1-c1ccc2c(c1)OCO2 (stereo not drawn) | 4.47 µM [falling, partial curve, poor fit] | –
12 | NC(=O)CCN1CCN(CCOC2Cc3cc(Cl)ccc3Sc3ccccc32)CC1 (stereo not drawn) | 18.4 µM [falling, partial curve, poor fit] | –
13 | C#CCOCCOCCOCCNc1nc(N2CCN(C(=O)CCCCCCCCCCNC(=O)[C@H]([C@@H](C)CC)n3cc(CCCCN=C(N)N)nn3)CC2)nc(N2CCN(C(=O)CCCCCCCCCCNC(=O)[C@H](CCCCN)n3cc(C)nn3)CC2)n1 | 10.3 µM [rising, partial curve, poor fit] | –
14 | N#Cc1nc(Nc2cccc(Cl)c2)c2ncn(C3CCCC3)c2n1 | 0.164 µM [rising, full curve, poor fit] | –
15 | O=[N+]([O-])/C(=C\Nc1ccc(F)cc1F)S(=O)(=O)c1ccccc1 | 3.55 µM [falling, single point] | –
16 | CC(NC(=O)c1c(O)c2ccccc2[nH]c1=O)c1ccccc1 (stereo not drawn) | 0.447 µM [rising, full curve, poor fit] | –
17 | CC(C)(C)C(=O)Nc1ccc(-c2cn3cccnc3n2)cc1 | 3.55 µM [rising, partial curve] | –
18 | O=C(Nc1cccc(-c2csc(Nc3ccc(Cl)cc3)n2)c1)c1cc([N+](=O)[O-])cc(C(F)(F)F)c1 | 7.08 µM [rising, partial curve, poor fit] | –
19 | COC(=O)c1cccc(NC(=O)/C(=C\c2ccccc2)NC(=O)c2ccccc2Cl)c1 | 20 µM [falling, partial curve, poor fit] | –
20 | Oc1cccc2c(NC(=S)Nc3ccc(OC(F)F)cc3)cccc12 | 0.164 µM [falling, full curve] | –
21 | COc1ccccc1CNC(=O)CN1C(=O)NC(C)(c2ccc(C(C)(C)C)cc2)C1=O (stereo not drawn) | 10 µM [falling, partial curve, poor fit] | –

Row | Compound | AC50 [1] | AC50 [2]
22 | CCC(CC)c1nnc(NC(=O)c2nn(C)c(=O)c3ccccc23)s1 | 11.2 µM [rising, partial curve, poor fit] | –
23 | Cc1cc(C(=O)OCC(=O)Nc2ccccc2C)c(C)o1 | 18.4 µM [falling, partial curve, poor fit] | –
24 | c1ccc(Nc2nc3ccccc3[nH]2)nc1 | 10 µM [falling, partial curve, poor fit] | –
25 | CCN1CCCC1CNC(=O)c1cc2c(OC)cccc2[nH]1 (stereo not drawn) | 2.82 µM [falling, full curve, poor fit] | –
26 | CCOC(=O)c1sc(NC(=O)COc2ccc3c(c2)OCO3)nc1C | 1 µM [falling, full curve, poor fit] | –
27 | Cc1cccc([C@@H]2[C@@H]3C(=O)N(Cc4ccccc4)C(=O)[C@@H]3[C@]3(Cc4ccccc4)C(=O)N(c4ccccc4)C(=O)N23)c1 | 2.59 µM [falling, full curve, poor fit] | –
28 | FC(F)(F)c1ccccc1-n1c(-c2cnccn2)n[nH]c1=S | 10 µM [falling, partial curve] | –
29 | Cc1ccc(N2CC(C(=O)NCCS(=O)(=O)N3CCN(c4ccccc4)CC3)CC2=O)cc1 (stereo not drawn) | 35.5 µM [rising, single point] | –
30 | O=C(c1ccncc1)c1nccn1-c1ccccn1 | 15.8 µM [falling, single point] | –
31 | CCOC(=O)c1c(C)n(-c2ccccc2)c2ccc(O)cc12 | 20 µM [falling, single point] | –
32 | COc1cccc(N(CC(=O)NCCSc2ccccn2)S(C)(=O)=O)c1 | 0.206 µM [rising, full curve, poor fit] | –
33 | OC(CN1c2ccccc2Sc2ccccc21)Cn1nnc2ccccc21 (stereo not drawn) | 29.1 µM [falling, single point] | –
34 | COc1ccc(C2=C/C(=C\c3ccc(OC(C)=O)cc3)C(=O)O2)cc1 | 0.708 µM [falling, full curve, poor fit] | –
35 | COCc1[nH]nc2c1C(c1ccsc1)C(C#N)=C(N)O2 (stereo not drawn) | 35.5 µM [falling, single point] | –
36 | O=C(Nc1ccc2c(c1)C(=O)N(C1CCCCC1)C2=O)C1CCCO1 (stereo not drawn) | 2.91 µM [rising, full curve] | 2.31 µM [falling, partial curve, poor fit]
37 | CCOc1ccc(NC(=O)CN2CCC(n3cnc4cc(F)ccc43)CC2)cc1 | 12.6 µM [falling, single point] | –
38 | O=C(CSC1=NCCN1)Nc1cccc(C(F)(F)F)c1 | 11.2 µM [falling, partial curve] | –
39 | CCCn1c(SCC(=O)Nc2nc(C)cs2)nnc1-c1cccnc1 | 35.5 µM [falling, single point] | –
40 | COc1ccc2oc(=O)c(C(=O)NCC3CCCO3)cc2c1 (stereo not drawn) | 15.8 µM [rising, single point] | –
41 | O=C1CC(N2CCC(c3nc4ccccc4o3)CC2)C(=O)N1c1ccc(Cl)c(C(F)(F)F)c1 (stereo not drawn) | 5.01 µM [falling, full curve, poor fit] | –
42 | CC1(C)C(=O)NC(=O)N1Cc1ccccc1 | 0.103 µM [rising, full curve, poor fit] | –

Row | Compound | AC50 [1] | AC50 [2]
43 | CCCCc1c(C)c2ccc(OCC(C)=O)cc2oc1=O | 6.51 µM [rising, partial curve, poor fit] | –
44 | COc1cc(/C=C2\C(=N)N3N=C(C)SC3=NC2=O)cc(OC)c1OCCOc1ccccc1C | 2.51 µM [rising, partial curve, poor fit] | –
45 | COc1cccc2cc(C(=O)NC3CC4CCC3C4)oc12 (stereo not drawn) | 25.1 µM [falling, single point] | –
46 | C/C(=N\NC(=O)c1ccncc1)c1cccc(NC(=O)c2ccc(C(C)(C)C)cc2)c1 | 35.5 µM [falling, single point] | –
47 | COc1cccc(NC(=S)NCc2ccco2)c1 | 0.651 µM [rising, partial curve, poor fit] | –
48 | N#Cc1cccc(C(c2nnnn2C2CCCC2)N2CCCCCC2)c1 (stereo not drawn) | 35.5 µM [falling, partial curve, poor fit] | –
49 | CCOC(=O)N(Cc1ccccc1)C(C(=O)O)C(C(=O)O)N(Cc1ccccc1)C(=O)OCC (stereo not drawn) | 1.78 µM [rising, partial curve, poor fit] | –
50 | Fc1ccc(-n2c(Cc3ccccc3)nnc2SCc2nc(-c3cccs3)no2)cc1 | 25.9 µM [falling, single point] | –
51 | Cc1cc(C)cc(NC(=O)C2CCCN2/C=C/C(=O)C(F)(F)F)c1 (stereo not drawn) | 6.51 µM [falling, single point] | 5.8 µM [rising, partial curve, poor fit]
52 | COc1ccc(NC2CCCN(C(=O)CN3C(=O)c4ccccc4C3=O)C2)cc1OC (stereo not drawn) | 35.5 µM [rising, single point] | –
53 | CCC(C)NCCOCCOc1ccc(Cl)cc1Br (stereo not drawn) | 20 µM [falling, single point] | –
54 | COC(=O)c1ccc(C(=O)Nc2ccc3nc(-c4ccncc4)[nH]c3c2)cc1 | 35.5 µM [falling, single point] | –
55 | CC(C)N1CCN(Cc2ccc3c(c2)Cc2ccccc2-3)CC1CCO (stereo not drawn) | 22.4 µM [falling, single point] | –
56 | COc1ccc(/C=N/NC(=O)c2ccc(O)cc2)cc1CN1CCCc2ccccc21 | 1.84 µM [falling, full curve] | –
57 | O=C(/C=C/c1cccc(Cl)c1)N1CCC(Cc2ccccc2)CC1 | 0.517 µM [rising, full curve, poor fit] | –
58 | CCOc1ccccc1-c1nc(-c2ccc(C)nc2OC)no1 | 10 µM [rising, single point] | –
59 | O=C(COc1nsnc1N1CCOCC1)Nc1ccc(Cl)cc1 | 5.62 µM [falling, full curve] | –
60 | CCOC(=O)c1ccc(N2C(=O)CC(N(Cc3ccc4c(c3)OCO4)C(=O)Nc3ccccc3)C2=O)cc1 (stereo not drawn) | 0.058 µM [falling, full curve, poor fit] | –
61 | COc1cc(-c2nnc(SCc3cc(=O)oc4cc(C)ccc34)o2)cc(OC)c1OC | 2.24 µM [rising, full curve] | –

From entry 46 up to 47, as listed above:
Row | Compound | AC50 [1] | AC50 [2]
46 | C/C(=N\NC(=O)c1ccncc1)c1cccc(NC(=O)c2ccc(C(C)(C)C)cc2)c1 | 35.5 µM [falling, single point] | –
47 | COc1cccc(NC(=S)NCc2ccco2)c1 | 0.651 µM [rising, partial curve, poor fit] | –
